Results as given in the supplement of paper PMC5949888.
Most values lie at the floor of the assay. Slopes are relative: functional sequences can read slightly below zero.

Each substance was assayed on Saccharomyces cerevisiae PS128 hsf1 delta, HSF1(1-493) fusion (assay: growth estimate (transactivation domain function in HSF1 fusion, heat-shock survival) (a.u. (slope of normalised read count over time)); higher = stronger growth at 37°C, i.e. more transactivation activity). Settings: library: random library.

Substance | growth estimate
SVYQRCSRSYLSISLWTGPR | < -0.25
SWAAVPRWAWCLRAMRLLGL | < -0.25
SWCLS | < -0.25
SWCVLETFFI | < -0.25
SWDEESRTEISTQIYLVNVH | < -0.25
SWGP | < -0.25
SWHLSAKSGDRVLRAWDTRS | < -0.25
SWKEDRPSFFWVGFSWVDGV | < -0.25
SWKLPRTLGWG | < -0.25
SWKWS | 0.0639
SWLCFQTCEWCA | < -0.25
SWLGRNPTYSLRIAMTDRVS | < -0.25
SWLYTCILMFLDTYSRMRDD | < -0.25
SWMGPQKRLMASIEQCVRKA | < -0.25
SWMSGIGF | < -0.25
SWPASMRVSRLRPDKTEFPG | < -0.25
SWPFSEGNGGASPCSQVSPR | < -0.25
SWRSFSQCHWVTVAPRTFNH | < -0.25
SWRVSFTQKQDYGSVTCPEQ | < -0.25
SWSQP | < -0.25
SWSRAPHQR | -0.246
SWSYLGAAGRRGN | < -0.25
SWVNGPCTGA | < -0.25
SWVVRRPPTRAERVDPSEYS | < -0.25
SWYGTVLDQATVRWFRRHVK | < -0.25

Substance | growth estimate
SYARAGSIVRVGWGPGSGRG | < -0.25
SYDSIGRLHTYLYRRDSKHA | < -0.25
SYDSPSLQCTYNGWKNQFL | < -0.25
SYETMAQTTIGFVTKAIRLC | < -0.25
SYFRIS | < -0.25
SYGQTTEATARVWLKAMHSK | < -0.25
SYGVLAVR | < -0.25
SYICA | < -0.25
SYKAGKQGHGPTWSGLT | < -0.25
SYKGVARRRWHHGKVTTDS | < -0.25
SYKNEPRPSNIKA | < -0.25
SYLDTYWVGTNGGLSLWSIC | < -0.25
SYLTIGGEPGLQLLAESVHP | -0.246
SYMPTTRH | < -0.25
SYPLNLKDNRRL | < -0.25
SYPTFTIG | < -0.25
SYRP | < -0.25
SYSGGYART | < -0.25
SYSHKVLLRYR | < -0.25
SYSLWAIMPDLRQANHHAHP | < -0.25
TAARKGELVEREAFIFRCDE | < -0.25
TAAVRN | < -0.25
TACGQESSALFARSRQKGLS | < -0.25
TACLLNSAGTWLGIIAGK | < -0.25
TADVFDPGSGDLKLQLARYA | < -0.25

A few values from the entries so far.
growth estimate with SYSLWAIMPDLRQANHHAHP reads < -0.25
growth estimate with SYKGVARRRWHHGKVTTDS reads < -0.25
growth estimate with SYICA reads < -0.25
growth estimate with SYGVLAVR reads < -0.25
growth estimate with SWLYTCILMFLDTYSRMRDD reads < -0.25

Next part

Substance | growth estimate
TAF | < -0.25
TAGGHVVGSRLIGPCSKVYG | < -0.25
TAGSKRTGPKPCEWRLASR | < -0.25
TAGVKLKPDVPDQGDGRRSG | < -0.25
TAILPK | < -0.25
TALIIESPSSLDDVLGSSGS | < -0.25
TALNHTCVGKR | < -0.25
TALTSGTGTLCPSDIRGIVH | < -0.25
TALWVFPCPLCNRILGSI | < -0.25
TALYN | < -0.25
TAP | < -0.25
TAPWARCRVGGLSVQPVLWG | < -0.25
TARV | < -0.25
TASFCRAWITDRAGVIPVSE | < -0.25
TASSARHQQRGSAGPDESAC | < -0.25
TASSGIYPILLRSPLPAAVG | < -0.25
TATICMWDAGRCPNGLMAHS | < -0.25
TATVERWTRWHRMLGFNCFA | < -0.25
TAVLLSSAKPRIFPFSSSFA | < -0.25
TAVP | < -0.25
TAVPSSSRARCVS | < -0.25
TCALYTPGSNQVWTGGHILS | < -0.25
TCAMGAEWKLPPRPGTAPRP | < -0.25
TCAPVKLTRLPSCAPANQ | < -0.25
TCAQQTV | < -0.25

Substance | growth estimate
TCASAGALGSRVRNFRK | -0.221
TCAT | < -0.25
TCCSKHRQP | < -0.25
TCEQPGIRCRQFRIVGPHWA | < -0.25
TCGC | < -0.25
TCGPEQKIESRAIGHRQPIL | < -0.25
TCGVRKALYRLKECMLRVGS | < -0.25
TCHAVRFGLVTRSCTFHVMV | -0.228
TCHQVLADNTAEAFCIQLVA | < -0.25
TCHVTA | < -0.25
TCLELFPRDHRAPTTLLFKR | < -0.25
TCRQGTWGRSAWGDGLRRPV | < -0.25
TCRQLQSLLIGYGTSLAIRG | < -0.25
TCRQPGGHTLALPPVDFCQV | < -0.25
TCRVYMLTEHGVKKRVTT | < -0.25
TCSGLLAARVDRVSALRSAK | < -0.25
TCSQGPFRARGGRWMEHSSR | < -0.25
TCSRSP | < -0.25
TCSSRSQREWRLLVEAGNNC | -0.25
TCTATLN | < -0.25
TCTAVPVCL | < -0.25
TCTWEYPR | < -0.25
TCVEGQALRIQGVRPRAGGA | < -0.25
